From article PMC12858073 come the findings set out here.

Results are given in words; binding and its absence hold for the method and conditions named. Binding seen in cells or lysates may run through a third protein. Here binding means that the protein was enriched with, or labelled near, the bait; the list need not be complete.

The target in one assay is T1, Ala10 PABPN1-TurboID (UniProt Q8CCS6).
T1 sequence: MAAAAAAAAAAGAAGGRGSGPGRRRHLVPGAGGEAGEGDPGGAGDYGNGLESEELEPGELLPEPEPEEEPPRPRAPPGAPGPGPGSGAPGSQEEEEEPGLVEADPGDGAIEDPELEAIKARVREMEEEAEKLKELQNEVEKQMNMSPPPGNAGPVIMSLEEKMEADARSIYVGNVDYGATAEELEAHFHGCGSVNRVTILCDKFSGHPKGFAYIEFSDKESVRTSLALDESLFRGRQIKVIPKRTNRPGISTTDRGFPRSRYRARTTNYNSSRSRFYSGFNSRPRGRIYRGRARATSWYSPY
Briefly: proximity labelling; PABPN1-TurboID at near-native levels in C2C12 myotubes (doxycycline, biotin); streptavidin capture; label-free quantitative nanoLC-MS/MS against the Mus musculus database; three experiments; strict hits in at least two of three replicates and not in wild type controls.

The target of the next assay is T2, Ala17 PABPN1-TurboID (UniProt Q8CCS6).
T2 sequence: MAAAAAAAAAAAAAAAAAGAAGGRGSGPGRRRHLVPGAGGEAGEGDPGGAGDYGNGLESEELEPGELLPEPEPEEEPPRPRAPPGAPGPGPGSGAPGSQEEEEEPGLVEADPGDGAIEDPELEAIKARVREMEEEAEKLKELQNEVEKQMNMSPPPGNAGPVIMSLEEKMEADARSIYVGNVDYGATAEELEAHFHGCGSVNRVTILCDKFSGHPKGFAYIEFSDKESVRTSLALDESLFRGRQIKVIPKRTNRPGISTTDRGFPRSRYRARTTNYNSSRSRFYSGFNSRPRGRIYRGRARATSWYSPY
The assay is described as above.

B1: RBM26 (protein, UniProt Q6NZN0 1-1012)
chain: MVSKMIIENFEALKSWLSKTLEPICDADPSALAKYVLALVKKDKSEKELKALCIDQLDVFLQKETQIFVEKLFDAVNTKSYLPPPEQPSSGSLKVDFLQHQEKDIKKEELTKEEEREKKFSRRLNHSPPQSSSRYRDNRSRDERKKDDRSRKRDYDRNPPRRDSYRDRYNRRRGRSRSYSRSRSRSWSKERLRDRDRDRSRTRSRSRTRSRERDLVKPKYDLDRTDPLENNYTPVSSVSNISSGHYPVPTLSSTITVIAPTHHGNNTTESWSEFHEDQVDHNSYVRPPMPKKRCRDYDEKGFCMRGDMCPFDHGSDPVVVEDVNLPGMLPFPAQPPVVEGPPPPGLPPPPPILTPPPVNLRPPVPPPGPLPPSLPPVTGPPPPLPPLQPSGMDAPPNSATSSVPTVVTTGIHHQPPPAPPSLFTAVFVLPDTYDTDGYNPEAPSITNTSRPMYRHRVHAQRPNLIGLTSGDMDLPPREKPPNKSSMRIVVDSESRKRTIGSGEPGVSTKKTWFDKPNFNRTNSPGFQKKVQFGNENTKLELRKVPPELNNISKLNEHFSRFGTLVNLQVAYNGDPEGALIQFATYEEAKKAISSTEAVLNNRFIKVYWHREGTTQQLQTTSPKVIQPLVQQPILPVVKQSVKERLGPVPSATTEPAEAQSATSELPQNVTKLSVKDRLGFVSKPSVSATEKVLSTSTGLTKTVYNPAALKAAQKTLSVSTPAVDNNEAQKKKQEALKLQQDVRKRKQEILEKHIETQKMLISKLEKNKTMKSEDKAEIMKTLEILTKNITKLKDEVKSTSPGRCLPKSIKTKTQMQKELLDTELDLYKKMQAGEEVTELRRKYTELQLEAAKRGILSSGRGRGIHTRGRGTAHGRGRGRGRGRGVPGHAVVDHRPRALEISAFTESDREDLLPHFAQYGEIEDCQIDDASLHAIITFKTRAEAEAAAIHGARFKGQDLKLAWNKPIANMSAVDTEEAEPDEEEFQEESLVDDSLLQDDDEEEEDNESRSWRR
Consider B1, for which the binding entry in the assay with Ala10 PABPN1-TurboID and with Ala17 PABPN1-TurboID was “binds” each time.

B2: SYNCRIP (protein, UniProt Q7TMK9 1-623)
chain: MATEHVNGNGTEEPMDTTSAVIHSENFQTLLDAGLPQKVAEKLDEIYVAGLVAHSDLDERAIEALKEFNEDGALAVLQQFKDSDLSHVQNKSAFLCGVMKTYRQREKQGTKVADSSKGPDEAKIKALLERTGYTLDVTTGQRKYGGPPPDSVYSGQQPSVGTEIFVGKIPRDLFEDELVPLFEKAGPIWDLRLMMDPLTGLNRGYAFVTFCTKEAAQEAVKLYNNHEIRSGKHIGVCISVANNRLFVGSIPKSKTKEQILEEFSKVTEGLTDVILYHQPDDKKKNRGFCFLEYEDHKTAAQARRRLMSGKVKVWGNVGTVEWADPIEDPDPEVMAKVKVLFVRNLANTVTEEILEKSFSQFGKLERVKKLKDYAFIHFDERDGAVKAMEEMNGKDLEGENIEIVFAKPPDQKRKERKAQRQAAKNQMYDDYYYYGPPHMPPPTRGRGRGGRGGYGYPPDYYGYEDYYDYYGYDYHNYRGGYEDPYYGYEDFQVGARGRGGRGARGAAPSRGRGAAPPRGRAGYSQRGGPGSARGVRGARGGAQQQRGRGVRGARGGRGGNVGGKRKADGYNQPDTKRRQTNNQNWGSQPIAQQPLQGGDHSGNYGYKSENQEFYQDTFGQQWK
B2: the binding entry with Ala10 PABPN1-TurboID and in the assay with Ala17 PABPN1-TurboID was “binds” in each case.

B3: ZC3HAV1 (protein, UniProt Q3UPF5 1-996)
chain: MTDPEVFCFITKILCAHGGRMTLEELLGEISLPEAQLYELLKAAGPDRFVLLETGDQAGITRSVVATTRARVCRRKYCQRPCDSLHLCKLNLLGRCHYAQSQRNLCKYSHDVLSEQNFQVLKNHELSGLNQEELAVLLVQSDPFFMPEICKSYKGEGRKQICGQPQPCERLHICEHFTRGNCSYLNCLRSHNLMDRKVLAIMREHGLSSDVVQNIQDICNNKHTRRNPPSMRAPHPHRRGGAHRDRSKSRDRFHHNSLEVLSTVSPLGSGPPSPDVTGCKDPLEDVSADVTQKFKYLGTQDRAQLSSVSSKAAGVRGPSQMRASQEFLEDGDPDGLFSRNRSDSSTSRTSAAGFPLVAAQRNEAGAMKMGMPSGHHVEVKGKNEDIDRVPFLNSYIDGVTMEEATVSGILGKRATDNGLEEMILSSNHQKSVAKTQDPQTAGRITDSGQDTAFLHSKYEENPAWPGTSTHNGPNGFSQIMDETPNVSKSSPTGFGIKSAVTGGKEAVYSGVQSLRSHVLAMPGETTTPVQGSNRLPPSPLSSSTSHRVAASGSPGKSSTHASVSPASEPSRMMMMMSDPAEYSLCYIVNPVSPRMDDHGLKEICLDHLYRGCQQVNCNKNHFHLPYRWQLFILPTWMDFQDMEYIERAYCDPQIEIIVIEKHRINFKKMTCDSYPIRRLSTPSFVEKTLNSVFTTKWLWYWRNELNEYTQYGHESPSHTSSEINSAYLESFFHSCPRGVLQFHAGSQNYELSFQGMIQTNIASKTQRHVVRRPVFVSSKDVEQKRRGPDHQPVMPQADALTLFSSPQRNASTVSSNEYEFIELNNQDEEYAKISEQFKASMKQFKIVTIKRIWNQKLWDTFERKKQKMKNKTEMFLFHAVGRIHMDYICKNNFEWILHGNREIRYGKGNYFTKEAMYSHKSCSYDSRGTVMFVARVLVGSVIEGNMTLSSPPALYDSCVDTRLNPSVFVIFRKEQIYPEYVIEYMELEKEKGCIIS
B3: the binding result with Ala10 PABPN1-TurboID and in the assay with Ala17 PABPN1-TurboID was “binds” throughout.

B4: ZC3H14 (protein, UniProt Q8BJ05 1-735)
chain: MEIGTEISRKIRSAIKGKLQELGAYVDEELPDYIMVMVANKKSQDQMTEDLSLFLGNNTIRFTVWLHGVLDKLRSVTTEPSSLKSPDASIFDSHVPSNKSSFSRGDERRHEAAVPPLAVSSSRPEKRDSRVSTSSQEQKSTNVRHSYDDGASTRLMSTVKPLREPAPSEDVIDIKPEPDDLIDEDLNFVQENPLSQKKPTVTLTYGSSRPSIEIYRPPASRNADTGTHLNRLQLHPQQSSAHAAKQLDVQSSQVSEAGRLCEPPVLSSVEDTYSPFFRNNLDKMSIEDENFRKRKLPVVSSVVKVKRFSHDGEEEEEDEDYGTRIGSLSSSVSVPAKPERRPSLPPSKQANKNLILKAISEAQESVTKTTNYSAVPQKQTLPVAPRTRTSQEELLAEMVQGQNRAPRISPPVKEEEAKGDNTGKSQGTQQRQLLSRLQIDPVMVETMEMSQDYYDMESMVHADTRSFILKKPKLSEEIVVTPNQDSGMKTADALRVLSGHLMQTRDLVQPDKPASPKFIVTLDGVPSPPGYMSDQEEEMCFEGMKPVNQTSASNKGLRGLLHPQQLHLLSRQLEDPDGSFSNAEMTDLSVAQKPEKLLERCKYWPACKNGDECVYHHPISPCKAFPNCKFAEKCLFVHPNCKYDTKCTKADCPFTHMSRRASILTPKPVSSPAPSSNGQLCRYFPACKKMECPFYHPKHCRFNTQCTRPDCTFYHPTITVPPRHALKWIRPQSSE
On to B4, for which the binding entry with Ala10 PABPN1-TurboID and with Ala17 PABPN1-TurboID was “binds” in each case.

B5: XAB2 (protein, UniProt Q9DCD2 1-855)
chain: MVVMARVPRSERPDLVFEEEDLPYEEEIMRNQFSVKCWLRYIEFKQGAPKPRLNQLYERALKLLPCSYKLWYRYLKARRAQVKHRCVTDPAYEDVNNCHERAFVFMHKMPRLWLDYCQFLMDQGRVTHTRRTFDRALRALPITQHSRIWPLYLRFLRSHPLPETAVRGYRRFLKLSPESAEEYIEYLKSSDRLDEAAQRLATVVNDERFVSKAGKSNYQLWHELCDLISQNPDKVQSLNVDAIIRGGLTRFTDQLGKLWCSLADYYIRSGHFEKARDVYEEAIRTVMTVRDFTQVFDSYAQFEESMIAAKMETASELGREEEDDVDLELRLARFEQLISRRPLLLNSVLLRQNPHHVHEWHKRVALHQGRPREIINTYTEAVQTVDPFKATGKPHTLWVAFAKFYEDNGQLDDARVILEKATKVNFKQVDDLASVWCQCGELELRHENYDEALKLLRKATALPARRAEYFDGSEPVQNRVYKSLKVWSMLADLEESLGTFQSTKAVYDRILDLRIATPQIVINYAMFLEEHKYFEESFKAYERGISLFKWPNVSDIWSTYLTKFISRYGGRKLERARDLFEQALDGCPPKYAKTLYLLYAQLEEEWGLARHAMAVYDRATRAVEPAQQYDMFNIYIKRAAEIYGVTHTRGIYQKAIEVLSDEHAREMCLRFADMECKLGEIDRARAIYSFCSQICDPRTTGAFWQTWKDFEVRHGNEDTIREMLRIRRSVQATYNTQVNFMASQMLKVSGSATGTVSDLAPGQSGMDDMKLLEQRAEQLAAEAERDQPPRAQSKIFFVRSDASREELAELAQQANPEEIQLGEDEDEDEMDLEPNEVRLEQQSVPAAVFGSLKED
Turning to B5, the binding result with Ala10 PABPN1-TurboID and with Ala17 PABPN1-TurboID was “binds” throughout.

B6: STEAP3 (protein, UniProt Q8CI59 1-488)
chain: MSGEMDKPLISRRLVDSDGSLAEVPKEAPKVGILGSGDFARSLATRLVGSGFSVVVGSRNPKRTAGLFPSLAQVTFQEEAVSSPEVIFVAVFREHYSSLCSLADQLAGKILVDVSNPTEKEHLQHRQSNAEYLASLFPACTVVKAFNVISAWALQAGPRDGNRQVLICSDQPEAKRTISEMARAMGFTPLDMGSLASAREVEAIPLRLLPSWKVPTLLALGLFVCFYTYNFIRDVLQPYIRKDENKFYKMPLSVVNTTLPCVAYVLLSLVYLPGVLAAALQLRRGTKYQRFPDWLDHWLQHRKQIGLLSFFFAMLHALYSFCLPLRRSHRYDLVNLAVKQVLANKSRLWVEEEVWRMEIYLSLGVLALGMLSLLAVTSLPSIANSLNWKEFSFVQSTLGFVALILSTMHTLTYGWTRAFEENHYKFYLPPTFTLTLLLPCVIILAKGLFLLPCLSRRLTKIRRGWEKDGAVKFMLPGDHTQGEKTSHV
As for B6, the binding entry with Ala10 PABPN1-TurboID and in the assay with Ala17 PABPN1-TurboID was “binds” each time.
